According to the supplement of paper PMC10849652:
The other results are listed elsewhere or left out.

Protein sequences, listed by entry. Tags and fused reporters are not part of them. Lines headed by an entry give the natural chain unless they say otherwise; changes in a name come on top.
UniProt Q14749: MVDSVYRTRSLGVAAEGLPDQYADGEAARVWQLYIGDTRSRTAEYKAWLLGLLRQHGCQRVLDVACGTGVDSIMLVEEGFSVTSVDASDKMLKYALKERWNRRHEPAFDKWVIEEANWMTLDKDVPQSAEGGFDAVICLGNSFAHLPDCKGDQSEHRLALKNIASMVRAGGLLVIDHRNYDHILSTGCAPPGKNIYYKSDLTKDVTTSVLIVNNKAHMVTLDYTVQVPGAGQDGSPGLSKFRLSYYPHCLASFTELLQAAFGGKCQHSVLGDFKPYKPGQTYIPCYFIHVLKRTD
UniProt I6L899: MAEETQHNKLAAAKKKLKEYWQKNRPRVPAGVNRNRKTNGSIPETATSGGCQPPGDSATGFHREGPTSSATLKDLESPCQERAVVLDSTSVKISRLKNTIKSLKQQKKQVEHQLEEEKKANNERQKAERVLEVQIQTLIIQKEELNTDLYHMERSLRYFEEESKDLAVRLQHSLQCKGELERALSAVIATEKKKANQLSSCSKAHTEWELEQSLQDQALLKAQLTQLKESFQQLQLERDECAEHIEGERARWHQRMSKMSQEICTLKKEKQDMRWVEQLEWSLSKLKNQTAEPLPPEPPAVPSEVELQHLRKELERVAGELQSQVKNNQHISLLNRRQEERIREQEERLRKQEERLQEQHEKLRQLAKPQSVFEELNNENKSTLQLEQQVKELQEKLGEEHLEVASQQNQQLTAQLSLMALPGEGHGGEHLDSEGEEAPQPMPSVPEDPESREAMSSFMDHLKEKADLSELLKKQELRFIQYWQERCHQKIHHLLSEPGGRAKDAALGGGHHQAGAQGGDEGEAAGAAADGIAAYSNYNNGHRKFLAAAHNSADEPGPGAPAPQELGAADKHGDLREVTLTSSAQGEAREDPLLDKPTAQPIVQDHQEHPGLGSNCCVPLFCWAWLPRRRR
UniProt Q5T3I0: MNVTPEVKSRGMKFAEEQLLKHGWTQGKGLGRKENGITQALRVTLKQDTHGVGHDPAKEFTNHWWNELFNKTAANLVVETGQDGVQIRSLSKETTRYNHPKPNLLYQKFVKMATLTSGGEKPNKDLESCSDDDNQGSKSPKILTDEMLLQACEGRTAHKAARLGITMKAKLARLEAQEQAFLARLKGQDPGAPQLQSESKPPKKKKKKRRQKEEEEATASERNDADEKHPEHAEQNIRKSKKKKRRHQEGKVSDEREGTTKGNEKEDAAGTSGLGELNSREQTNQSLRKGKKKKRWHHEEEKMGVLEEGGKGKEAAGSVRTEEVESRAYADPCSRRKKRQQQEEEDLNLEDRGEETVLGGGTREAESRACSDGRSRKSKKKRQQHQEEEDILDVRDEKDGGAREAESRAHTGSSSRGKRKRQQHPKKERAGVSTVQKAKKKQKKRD
UniProt P21695: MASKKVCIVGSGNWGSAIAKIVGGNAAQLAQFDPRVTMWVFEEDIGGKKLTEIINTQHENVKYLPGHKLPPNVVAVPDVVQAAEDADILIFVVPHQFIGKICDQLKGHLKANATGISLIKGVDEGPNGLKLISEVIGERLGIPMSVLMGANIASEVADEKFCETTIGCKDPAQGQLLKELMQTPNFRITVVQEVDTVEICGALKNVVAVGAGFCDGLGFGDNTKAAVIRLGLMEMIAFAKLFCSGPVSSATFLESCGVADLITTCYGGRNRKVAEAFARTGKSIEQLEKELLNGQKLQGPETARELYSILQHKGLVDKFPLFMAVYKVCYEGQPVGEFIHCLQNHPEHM
UniProt Q9UBI6: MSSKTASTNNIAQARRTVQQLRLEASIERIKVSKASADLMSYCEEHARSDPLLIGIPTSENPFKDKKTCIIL
UniProt Q8TD30: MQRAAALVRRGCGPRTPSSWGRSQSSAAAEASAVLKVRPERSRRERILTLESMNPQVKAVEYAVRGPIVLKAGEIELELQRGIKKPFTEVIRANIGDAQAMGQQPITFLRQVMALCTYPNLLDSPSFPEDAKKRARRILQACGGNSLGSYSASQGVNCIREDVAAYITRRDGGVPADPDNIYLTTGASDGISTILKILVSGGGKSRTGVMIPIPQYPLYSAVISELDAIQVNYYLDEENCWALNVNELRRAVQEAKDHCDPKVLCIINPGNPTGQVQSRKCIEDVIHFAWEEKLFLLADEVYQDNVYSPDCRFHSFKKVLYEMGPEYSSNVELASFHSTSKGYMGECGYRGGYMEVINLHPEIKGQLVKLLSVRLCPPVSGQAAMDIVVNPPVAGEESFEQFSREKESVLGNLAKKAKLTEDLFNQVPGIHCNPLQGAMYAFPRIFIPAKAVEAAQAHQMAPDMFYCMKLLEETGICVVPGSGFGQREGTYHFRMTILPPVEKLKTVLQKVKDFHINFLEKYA
UniProt Q6ZS86: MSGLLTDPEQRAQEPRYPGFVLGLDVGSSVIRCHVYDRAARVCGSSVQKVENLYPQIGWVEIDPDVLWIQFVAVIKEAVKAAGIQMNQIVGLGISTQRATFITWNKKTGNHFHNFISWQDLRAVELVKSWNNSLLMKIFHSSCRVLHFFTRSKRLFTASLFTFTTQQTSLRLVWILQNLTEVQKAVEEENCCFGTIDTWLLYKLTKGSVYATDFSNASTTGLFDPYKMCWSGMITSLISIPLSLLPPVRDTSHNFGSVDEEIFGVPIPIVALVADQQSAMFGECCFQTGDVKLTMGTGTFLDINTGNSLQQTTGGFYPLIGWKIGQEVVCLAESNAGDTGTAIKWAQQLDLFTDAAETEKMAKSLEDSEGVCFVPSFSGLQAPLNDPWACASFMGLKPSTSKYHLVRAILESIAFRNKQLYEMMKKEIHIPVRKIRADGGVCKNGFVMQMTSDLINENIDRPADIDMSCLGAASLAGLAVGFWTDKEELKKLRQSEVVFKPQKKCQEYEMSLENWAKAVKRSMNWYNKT
UniProt Q9NPB8: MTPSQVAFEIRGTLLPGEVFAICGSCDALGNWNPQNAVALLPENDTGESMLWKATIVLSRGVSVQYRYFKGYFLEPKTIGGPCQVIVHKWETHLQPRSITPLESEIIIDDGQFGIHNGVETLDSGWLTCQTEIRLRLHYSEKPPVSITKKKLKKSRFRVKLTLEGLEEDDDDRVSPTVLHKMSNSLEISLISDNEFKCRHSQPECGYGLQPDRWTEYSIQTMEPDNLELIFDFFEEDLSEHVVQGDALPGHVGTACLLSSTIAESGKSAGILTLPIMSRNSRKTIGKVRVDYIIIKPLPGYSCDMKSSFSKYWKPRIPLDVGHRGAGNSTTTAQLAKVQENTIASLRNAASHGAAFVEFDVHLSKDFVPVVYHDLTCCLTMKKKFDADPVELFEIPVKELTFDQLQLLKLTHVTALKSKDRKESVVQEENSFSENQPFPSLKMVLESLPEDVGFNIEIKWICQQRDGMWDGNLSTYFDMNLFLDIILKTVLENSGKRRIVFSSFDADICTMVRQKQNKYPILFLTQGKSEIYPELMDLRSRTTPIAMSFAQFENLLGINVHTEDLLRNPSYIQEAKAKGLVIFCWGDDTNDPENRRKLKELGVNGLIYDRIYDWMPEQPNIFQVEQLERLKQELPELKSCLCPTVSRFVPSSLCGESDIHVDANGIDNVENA
UniProt Q86V85: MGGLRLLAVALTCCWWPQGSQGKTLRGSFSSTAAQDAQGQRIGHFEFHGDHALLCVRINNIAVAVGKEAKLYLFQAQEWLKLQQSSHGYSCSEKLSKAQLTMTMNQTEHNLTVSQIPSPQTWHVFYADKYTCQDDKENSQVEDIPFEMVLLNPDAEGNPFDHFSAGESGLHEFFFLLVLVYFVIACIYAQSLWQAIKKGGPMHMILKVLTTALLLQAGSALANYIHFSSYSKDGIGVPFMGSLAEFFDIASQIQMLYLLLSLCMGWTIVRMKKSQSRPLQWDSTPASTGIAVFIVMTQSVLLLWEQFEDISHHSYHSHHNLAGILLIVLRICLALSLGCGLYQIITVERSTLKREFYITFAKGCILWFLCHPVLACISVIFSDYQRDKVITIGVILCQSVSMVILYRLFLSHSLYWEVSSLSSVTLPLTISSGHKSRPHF
UniProt Q9UJJ9: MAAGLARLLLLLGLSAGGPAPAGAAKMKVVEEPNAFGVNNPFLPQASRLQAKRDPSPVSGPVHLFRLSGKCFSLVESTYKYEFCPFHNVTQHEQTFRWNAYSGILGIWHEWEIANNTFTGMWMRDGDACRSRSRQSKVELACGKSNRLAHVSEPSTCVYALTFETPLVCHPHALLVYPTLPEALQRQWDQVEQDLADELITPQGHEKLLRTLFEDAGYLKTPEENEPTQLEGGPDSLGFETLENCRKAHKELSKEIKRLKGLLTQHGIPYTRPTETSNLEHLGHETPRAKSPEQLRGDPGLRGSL
UniProt Q9NZD2: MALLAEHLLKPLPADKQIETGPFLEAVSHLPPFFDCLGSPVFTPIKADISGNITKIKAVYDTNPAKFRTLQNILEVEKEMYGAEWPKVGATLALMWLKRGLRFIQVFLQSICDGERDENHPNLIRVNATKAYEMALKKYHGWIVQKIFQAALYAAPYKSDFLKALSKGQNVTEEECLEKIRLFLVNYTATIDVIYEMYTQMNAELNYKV
UniProt Q92805: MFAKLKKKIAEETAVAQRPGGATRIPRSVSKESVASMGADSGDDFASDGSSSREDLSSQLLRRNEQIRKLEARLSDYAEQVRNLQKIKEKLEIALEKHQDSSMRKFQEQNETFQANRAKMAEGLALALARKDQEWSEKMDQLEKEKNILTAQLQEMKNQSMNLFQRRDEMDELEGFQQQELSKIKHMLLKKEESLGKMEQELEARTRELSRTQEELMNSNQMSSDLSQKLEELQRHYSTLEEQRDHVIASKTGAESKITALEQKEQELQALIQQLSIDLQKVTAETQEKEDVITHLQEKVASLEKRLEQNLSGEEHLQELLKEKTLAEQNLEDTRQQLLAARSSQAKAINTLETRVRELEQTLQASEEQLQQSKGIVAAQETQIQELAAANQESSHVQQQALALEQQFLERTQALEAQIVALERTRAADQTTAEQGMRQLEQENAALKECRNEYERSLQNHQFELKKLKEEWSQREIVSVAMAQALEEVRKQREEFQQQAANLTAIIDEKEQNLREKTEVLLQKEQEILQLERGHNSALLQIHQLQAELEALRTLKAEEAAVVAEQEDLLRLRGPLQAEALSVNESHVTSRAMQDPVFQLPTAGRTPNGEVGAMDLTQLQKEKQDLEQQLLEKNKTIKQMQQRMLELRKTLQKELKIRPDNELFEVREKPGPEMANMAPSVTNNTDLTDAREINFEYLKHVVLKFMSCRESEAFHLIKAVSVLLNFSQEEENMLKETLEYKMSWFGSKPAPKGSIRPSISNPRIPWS
UniProt Q5T7V8: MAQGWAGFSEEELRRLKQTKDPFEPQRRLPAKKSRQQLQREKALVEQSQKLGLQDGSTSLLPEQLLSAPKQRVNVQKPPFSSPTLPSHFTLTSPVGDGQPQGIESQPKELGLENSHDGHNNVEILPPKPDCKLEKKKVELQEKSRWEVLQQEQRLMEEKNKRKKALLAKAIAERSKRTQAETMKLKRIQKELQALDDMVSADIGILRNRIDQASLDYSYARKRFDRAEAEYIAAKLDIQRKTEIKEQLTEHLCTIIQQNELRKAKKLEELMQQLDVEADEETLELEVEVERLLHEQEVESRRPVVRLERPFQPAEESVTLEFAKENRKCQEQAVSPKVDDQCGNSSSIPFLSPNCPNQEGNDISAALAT
UniProt Q9NPR9: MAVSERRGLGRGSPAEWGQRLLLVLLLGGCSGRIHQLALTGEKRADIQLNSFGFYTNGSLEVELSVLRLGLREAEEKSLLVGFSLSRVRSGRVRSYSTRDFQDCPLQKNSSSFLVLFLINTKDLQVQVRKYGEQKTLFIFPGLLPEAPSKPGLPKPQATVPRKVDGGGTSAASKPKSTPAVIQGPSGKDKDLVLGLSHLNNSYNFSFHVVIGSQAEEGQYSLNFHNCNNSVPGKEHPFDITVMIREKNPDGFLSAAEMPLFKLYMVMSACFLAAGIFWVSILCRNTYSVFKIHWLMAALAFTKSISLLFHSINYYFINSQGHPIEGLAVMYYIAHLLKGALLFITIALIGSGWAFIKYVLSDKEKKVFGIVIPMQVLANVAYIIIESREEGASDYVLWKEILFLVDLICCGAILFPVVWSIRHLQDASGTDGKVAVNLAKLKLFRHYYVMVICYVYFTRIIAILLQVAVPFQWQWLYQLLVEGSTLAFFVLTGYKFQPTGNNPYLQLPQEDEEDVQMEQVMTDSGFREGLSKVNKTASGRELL
UniProt P22352, whole entry, looked up: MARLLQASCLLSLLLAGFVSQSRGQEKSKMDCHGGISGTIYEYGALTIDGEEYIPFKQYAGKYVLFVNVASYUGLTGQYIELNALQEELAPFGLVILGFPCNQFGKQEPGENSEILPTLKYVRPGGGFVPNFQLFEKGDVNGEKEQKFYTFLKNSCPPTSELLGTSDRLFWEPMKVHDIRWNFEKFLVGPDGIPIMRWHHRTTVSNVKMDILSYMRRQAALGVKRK
UniProt Q9Y4H4: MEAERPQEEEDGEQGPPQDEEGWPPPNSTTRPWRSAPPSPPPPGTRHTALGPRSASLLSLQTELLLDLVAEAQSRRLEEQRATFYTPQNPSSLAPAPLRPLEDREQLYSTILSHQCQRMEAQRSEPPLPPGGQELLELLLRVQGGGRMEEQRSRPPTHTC

Compound: Cc1cc(Nc2cc(CN3CCOCC3)c3nc(C)c(Cc4ccc(Cl)cc4F)n3n2)n[nH]1 [gandotinib]
Test: log2 fold change, soluble protein after heating vs DMSO (PISA); higher = thermal stabilisation; K562 cells, 10 uM, 30 min; active = over 0.2 and 3.5 SD of the protein, either way, in both replicates (recomputed)
How it was run: (§1)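 Values are thermal stability changes relative to control samples and are taken from duplicates. They are stated as log2 fold changes. Before quantification by TMTpro 16plex LC-MS/MS with equalised channel sums, K562 cells at 2×10^6 cells/mL were treated with 10 μM compound for 30 min, heated in aliquots for 3 min across 48°C-58°C, pooled, extracted in PBS with 0.5% NP-40 at 4°C, and centrifuged at 21,000xg for 90 min to give the soluble supernatant.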

Target | log2 fold change
GPS1 (UniProt A8K070) | inactive: -0.08
GNL3 (UniProt Q9BVP2) | inactive: 0.098
GNMT (UniProt Q14749) | inactive: 0.14
GOLGA8R (UniProt I6L899) | inactive: 0.324
GPATCH4 isoform 3 (UniProt Q5T3I0) | inactive: 0.251
GPD1 (UniProt P21695) | inactive: 0.094
GPAA1 (UniProt E9PLG8) | inactive: -0.236
GNG12 (UniProt Q9UBI6) | inactive: 0.102
GPT2 (UniProt Q8TD30) | inactive: -0.089
GK5 (UniProt Q6ZS86) | inactive: 0.156
GNL3L (UniProt Q9NVN8) | inactive: -0.078
GPCPD1 (UniProt Q9NPB8) | inactive: -0.012
GPR180 (UniProt Q86V85) | inactive: -0.131
GNPTG (UniProt Q9UJJ9) | inactive: -0.121
GLT8D1 (UniProt Q68CQ7) | inactive: 0.154
GNL2 (UniProt Q13823) | inactive: 0.089
GINM1 (UniProt Q9NU53) | inactive: 0.016
GJA1 (UniProt P17302) | inactive: 0.328
GLTP (UniProt Q9NZD2) | inactive: 0.095
GOLGA1 (UniProt Q92805) | inactive: 0.058
GPC4 (UniProt O75487) | inactive: -0.258

Compound: Cc1cc(Nc2cc(N3CCN(C)CC3)nc(Sc3ccc(NC(=O)C4CC4)cc3)n2)n[nH]1 [tozasertib]
Test: as above
How it was run: as §1

Target | log2 fold change
GNMT (UniProt Q14749) | inactive: -0.078
GPATCH4 isoform 3 (UniProt Q5T3I0) | inactive: 0.156
GPAA1 (UniProt E9PLG8) | inactive: -0.057
GPATCH2L (UniProt Q9NWQ4) | inactive: 0.249
GPT2 (UniProt Q8TD30) | inactive: -0.204
GPATCH1 (UniProt Q9BRR8) | inactive: -0.178
GK5 (UniProt Q6ZS86) | inactive: -0.13
GORAB (UniProt Q5T7V8) | inactive: -0.069
GPR108 (UniProt Q9NPR9) | inactive: 0.002
GOLM1 (UniProt Q8NBJ4) | inactive: -0.102
GPR180 (UniProt Q86V85) | inactive: 0.028
GNPTG (UniProt Q9UJJ9) | inactive: 0.022
GNL2 (UniProt Q13823) | inactive: -0.171
GLTP (UniProt Q9NZD2) | inactive: 0.05
GPX3 (UniProt P22352) | inactive: -0.246

Compound: Cc1cc(SCc2sc(-c3ccc(C(F)(F)F)cc3)nc2C)ccc1OCC(=O)O
Test: as above
How it was run: as §1

Target | log2 fold change
GNL3 (UniProt Q9BVP2) | inactive: -0.053
GORASP1 (UniProt Q9BQQ3) | inactive: 0.173
GNMT (UniProt Q14749) | inactive: -0.093
GOLGA8R (UniProt I6L899) | inactive: -0.067
GPATCH4 isoform 3 (UniProt Q5T3I0) | inactive: -0.107
GPD1 (UniProt P21695) | inactive: -0.034
GPAA1 (UniProt E9PLG8) | inactive: -0.023
GLE1 (UniProt Q53GS7) | inactive: 0.071
GSE1 (UniProt Q14687) | inactive: -0.046
GPT2 (UniProt Q8TD30) | inactive: 0.03
GPATCH1 (UniProt Q9BRR8) | inactive: 0.039
GK5 (UniProt Q6ZS86) | inactive: 0.142
GSDME (UniProt O60443) | inactive: 0.005
GOSR1 (UniProt E9PCW1) | inactive: 0.019
GPCPD1 (UniProt Q9NPB8) | inactive: 0.205
GORAB (UniProt Q5T7V8) | inactive: -0.007
GPR108 (UniProt Q9NPR9) | inactive: -0.071
GPR180 (UniProt Q86V85) | inactive: 0.036
GNPTG (UniProt Q9UJJ9) | inactive: -0.037
GLT8D1 (UniProt Q68CQ7) | inactive: 0.233
GPSM3 (UniProt Q9Y4H4) | inactive: 0.114
GIT2 (UniProt Q14161) | inactive: 0.147
GOLGA1 (UniProt Q92805) | inactive: -0.007
GPX3 (UniProt P22352) | inactive: 0.119
GRK6 isoform 2 (UniProt P43250) | inactive: 0.077

Compound: Cc1ccc(-n2nc(C(C)(C)C)cc2NC(=O)Nc2ccc(OCCN3CCOCC3)c3ccccc23)cc1 [doramapimod]
Test: as above
How it was run: as §1

Target | log2 fold change
GPS1 (UniProt A8K070) | inactive: 0.117
GOLGA8R (UniProt I6L899) | inactive: 0.108
GPATCH4 isoform 3 (UniProt Q5T3I0) | inactive: 0.127
GPAA1 (UniProt E9PLG8) | inactive: -0.031
GK5 (UniProt Q6ZS86) | inactive: -0.064
GPR68 (UniProt Q15743) | inactive: -0.014
GNPTG (UniProt Q9UJJ9) | inactive: 0.003
GIT2 (UniProt Q14161) | inactive: 0.241
GP6 isoform 3 (UniProt Q9HCN6) | inactive: 0.109

Compound: Cc1ccc(C(=O)N(CCCN)[C@@H](c2nc3cc(Cl)ccc3c(=O)n2Cc2ccccc2)C(C)C)cc1 [ispinesib]
Test: as above
How it was run: as §1

Target | log2 fold change
GPS1 (UniProt A8K070) | inactive: 0.043
GNMT (UniProt Q14749) | inactive: 0.154
GOLGA8R (UniProt I6L899) | inactive: -0.038
GPATCH4 isoform 3 (UniProt Q5T3I0) | inactive: -0.159
GPD1 (UniProt P21695) | inactive: 0.046
GSE1 (UniProt Q14687) | inactive: -0.066
GPT2 (UniProt Q8TD30) | inactive: -0.175
GK5 (UniProt Q6ZS86) | inactive: -0.177
GPR68 (UniProt Q15743) | inactive: 0.187
GPCPD1 (UniProt Q9NPB8) | inactive: 0.026
GORAB (UniProt Q5T7V8) | inactive: 0
GPR108 (UniProt Q9NPR9) | inactive: -0.041
GOLM1 (UniProt Q8NBJ4) | inactive: -0.084
GNPTG (UniProt Q9UJJ9) | inactive: 0.03
GNL2 (UniProt Q13823) | inactive: -0.041
GLTP (UniProt Q9NZD2) | inactive: 0.209
GOLGA1 (UniProt Q92805) | inactive: -0.244
GPX3 (UniProt P22352) | inactive: 0.063
